Laboratory results: the supplement of paper PMC3334620
In all, about 33,000 sequences were measured (“E-score (-0.5 to 0.5)”: median about -0.0034, highest 2% from about 0.25 on). The list shows a part of the results.

molecular target: T1, Yap3 (UniProt P38749); experiment: PBM E-score (8-mer binding enrichment) (E-score (-0.5 to 0.5)); higher = stronger / more preferred TF binding; conditions: protein concentration: 100 nM; construct: GST-full length
T1 sequence: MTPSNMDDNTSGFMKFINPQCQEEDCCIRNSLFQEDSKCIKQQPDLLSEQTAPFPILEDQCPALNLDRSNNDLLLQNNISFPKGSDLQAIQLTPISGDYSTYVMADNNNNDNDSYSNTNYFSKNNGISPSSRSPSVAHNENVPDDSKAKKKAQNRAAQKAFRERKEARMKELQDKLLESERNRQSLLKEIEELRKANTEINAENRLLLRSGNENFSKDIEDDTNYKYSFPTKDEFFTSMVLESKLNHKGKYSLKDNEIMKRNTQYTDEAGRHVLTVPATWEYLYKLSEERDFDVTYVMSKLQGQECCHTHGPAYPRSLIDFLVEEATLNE
How it was run: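 Masliner-normalised scans of fluorescent anti-GST signal were the basis for scoring. That signal came from GST-tagged yeast transcription factors applied at about 100-200 nM to double-stranded universal all-10-mer Agilent arrays on fresh or once-stripped slides. Each ungapped eight-base word, pooled with its reverse complement, received an E-score from the Universal PBM Analysis Suite.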

Row | Sequence | PBM E-score
1 | GATGCTAC | 0.135
2 | CCCGTGCC | -0.271
3 | CGATCCCC | -0.265
4 | AGCGGCCA | -0.274
5 | AAATCACA | 0.0156
6 | AAAATAGA | 0.256
7 | ATTCAGTC | -0.0407
8 | CAGTTATC | -0.18
9 | AGTGCTGC | -0.185
10 | AAAATCTA | 0.0549
11 | CTATGAGA | -0.0545
12 | AAACTCTA | -0.0385
13 | CAGGTTAA | 0.142
14 | AGTCGGTA | -0.113
15 | ATTGCGAA | -0.0182
16 | AACCCAGG | -0.138
17 | GGTGGTAA | 0.0583
18 | ATCATGCC | 0.0975
19 | TGGAAGAA | 0.0735
20 | ACTCTACC | 0.0336
21 | AGGAGAGA | -0.0656
22 | CAAAAGTG | 0.0317
23 | CGCTGTCC | 0.0161
24 | GAGACTCC | -0.0962
25 | GTCCACTA | -0.0727

Row | Sequence | PBM E-score
26 | AGTAAAAG | 0.108
27 | AAAGAGTG | -0.0322
28 | CACTGCGC | -0.114
29 | CGAAAGTC | -0.105
30 | GTCAAGTA | -0.12
31 | GTGAGTCA | 0.00151
32 | ATTAGTGA | 0.179
33 | CATAACCA | 0.0668
34 | AGCATTGG | 0.0112
35 | AGCCTCGC | -0.132
36 | AACGAGTC | -0.0938
37 | GTAAGAAA | 0.101
38 | CATCCACC | 0.064
39 | CCAGACCG | -0.105
40 | AAAGTACT | -0.133
41 | CCCACAGC | -0.117
42 | AGCCCGGC | -0.249
43 | TCCCATCA | -0.0655
44 | AAAGCGTC | -0.114
45 | ACCATGTG | 0.0753
46 | ATAATTAG | 0.347
47 | GGCATGTA | -0.00875
48 | TATGGTAA | 0.124
49 | GTACAAAC | 0.0838
50 | GCGTGGAA | 0.0149

Row | Sequence | PBM E-score
51 | GAGCGAAC | -0.103
52 | CGGTATGA | 0.14
53 | GAGCGTCA | -0.102
54 | ATATCTCG | 0.0271
55 | CATGCGTC | -0.151
56 | AGCCGAGC | -0.0255
57 | AGCGAGTG | -0.00138
58 | AATGAAAG | 0.156
59 | AAGAGTCA | 0.0394
60 | ATAACACC | 0.158
61 | GTGTGCTA | 0.0286
62 | TCAATACA | 0.162
63 | GCCGTGAA | -0.0965
64 | TGGCGCAA | -0.00773
65 | ATTAACTC | 0.193
66 | AGAGCACC | -0.168
67 | AGTCGACG | 0.23
68 | GGGTGAAA | 0.0598
69 | AGATTAAG | 0.114
70 | AGGGTAGC | -0.136
71 | GGTGTCTA | -0.0438
72 | GCACGTCC | -0.00927
73 | ATCCTCGC | -0.0454
74 | CGCGCGCA | 0.156
75 | CACCCCGA | -0.166

Row | Sequence | PBM E-score
76 | AACGGGAC | -0.053
77 | TGTTCTAA | 0.256
78 | CGTACGGA | 0.189
79 | ACTATACC | 0.0405
80 | CCTAGAGG | -0.177
81 | AAGTTACT | 0.104
82 | GTTGACCA | 0.0339
83 | ATAAGCAG | 0.131
84 | ACCCGGGC | -0.226
85 | CGCCCGAC | -0.08
86 | AATATAAC | 0.247
87 | AAATGGTT | -0.0164
88 | CAGTCCAA | -0.184
89 | ACACGAGA | -0.0736
90 | ATGGGCCA | -0.122
91 | AATCCACG | 0.0389
92 | ATGAAGTC | -0.071
93 | TAAGCATA | 0.161
94 | CTAGTACC | 0.0239
95 | ACGAGAAG | -0.132
96 | GTAGGATA | -0.00688
97 | AATTAGCA | 0.207
98 | TCACCGAA | -0.023
99 | CTACTCGA | -0.00855
100 | AAAAAAGA | 0.125

From no. 80 to 81, as listed above:
Row | Sequence | PBM E-score
80 | CCTAGAGG | -0.177
81 | AAGTTACT | 0.104

Additional records follow:

Row | Sequence | PBM E-score
101 | ACGTGATA | 0.126
102 | AAGTGTTA | 0.112
103 | TACTACAA | 0.229
104 | CATACTCG | 0.0829
105 | AGACAGCA | 0.0232
106 | ACCGAAAG | -0.0922
107 | ATTAACGC | 0.0599
108 | TCGCCAGA | -0.0969
109 | AATAAACC | 0.17
110 | AGCGGACA | -0.0696
111 | ACATAAAC | 0.233
112 | AATAACCG | -0.00637
113 | AATTTCAG | 0.0354
114 | ATAACTTG | 0.134
115 | TCCGTCAA | 0.084
116 | ATTTACAA | 0.225
117 | AGCCAAGG | -0.0619
118 | AAAACTTA | 0.135
119 | CCTTGCCC | 0.0198
120 | CTAGACAA | -0.0572
121 | CAGGAACA | 0.0218
122 | CTAGTCGC | -0.185
123 | ACAGCAAG | 0.247
124 | ACGGCCCC | -0.329
125 | AGGGGGGC | -0.442

Row | Sequence | PBM E-score
126 | GAAGCGGC | -0.229
127 | AACTAGCC | -0.0476
128 | GACGTGAA | 0.0592
129 | TACGTTCA | 0.119
130 | CACACCAC | 0.189
131 | AATCCTTC | -0.14
132 | CCCGAGTC | -0.0607
133 | CCGCGCCG | -0.118
134 | ATGATGCG | 0.0421
135 | CAACGTGA | -0.0798
136 | ATTGATCG | 0.104
137 | ATGGCAGA | 0.0912
138 | GTTTGTTA | 0.0959
139 | ATGCGCGG | -0.0394
140 | AAACTGCG | -0.049
141 | AGACTAGA | -0.243
142 | TGTTGTAA | 0.144
143 | TCACAGGA | 0.049
144 | CCATCTTC | 0.0621
145 | TACATATA | 0.248
146 | ACGCTACA | 0.136
147 | GCGGAACC | -0.0148
148 | ACACCAAC | 0.0179
149 | GGTCCGAA | 0.0386
150 | CAACAATC | 0.203

Row | Sequence | PBM E-score
151 | CTTGTCCA | -0.0307
152 | CGTCCGTA | -0.0229
153 | ACCTAGAT | 0.00493
154 | AAAAGGTC | -0.0364
155 | CAACATGC | 0.00222
156 | CTGTTTTA | 0.254
157 | CGAGTGGA | -0.0396
158 | GCACCGGA | -0.205
159 | CCAATACC | -0.0145
160 | CTTATTTA | 0.11
161 | TAGGCCGA | -0.212
162 | AGACGGTC | -0.17
163 | TGAGAGAA | 0.0805
164 | CACGTACG | -0.109
165 | CAACTCGC | 0.0689
166 | CCCTCTAA | -0.222
167 | ATAGCGAA | 0.194
168 | GTCACAGA | 0.104
169 | CAATAACG | 0.148
170 | AACCCCTC | -0.185
171 | ACCTTCCT | -0.194
172 | CCGTAGAC | -0.134

Fetched one by one from above, 2 records:
Row | Sequence | PBM E-score
152 | CGTCCGTA | -0.0229
162 | AGACGGTC | -0.17

Another view of part of the listing above.
AAAAGGTC
  PBM E-score: -0.0364
CAACATGC
  PBM E-score: 0.00222
AGACGGTC
  PBM E-score: -0.17
GTCACAGA
  PBM E-score: 0.104
